From patent US10563263B2, “Genetic polymorphisms associated with statin response and cardiovascular diseases, methods of detection and uses thereof” (CELERA CORPORATION, priority 2010, dated 2020)
Further values from the same series stand in other lists.

Test system: CVD (CHD or stroke)
Assay: WOSCOPS: SNP by pravastatin treatment interaction, logistic regression (synergy index), CVD endpoint
Assay type: in vivo, human
Details: WOSCOPS
From the text: CARE was a secondary prevention trial and WOSCOPS was a primary prevention trial.
The CHD endpoint was defined in the analyses herein of CARE as a composite endpoint of fatal CHD, definite non-fatal MI, or revascularization, and was defined in the analyses herein of WOSCOPS as a composite endpoint of death from CHD, nonfatal MI, or revascularization. In both the CARE and WOSCOPS analyses herein, the CVD endpoint was defined as a composite endpoint of CHD or stroke. […] Revascularization, which can include percutaneous transluminal coronary angioplasty (PTCA), stent placement, and coronary artery bypass graft (CABG), are medical interventions that indicate the presence of CHD.
Cohort and case-only study designs were used to identify SNPs associated with response to statin treatment.
For each SNP, a logistic regression model having treatment status as the dependent variable and SNP as the independent predictor variable was performed, with terms for age, sex and race included in the model as covariates. The anti-log of the regression coefficient corresponding to the SNP is an estimate of the synergy index (SI) (Davis et al., “Imputing gene-treatment interactions when the genotype distribution is unknown using case-only and putative placebo analyses-a new method for the Genetics of Hypertension Associated Treatment (GenHAT) study”, Statistics in Medicine 23: (2004), pages 2413-2427). The SI is a ratio of odds ratios: for example in the CARE and WOSCOPS studies, the SI represents the factor by which the odds-ratio of statin treatment, compared with placebo, among major homozygous individuals is multiplied by in order to obtain the odds-ratio of treatment vs. placebo among heterozygous individuals; and multiplied by a second time to obtain the odds-ratio of treatment vs. placebo in minor homozygous individuals. […] In a randomized clinical trial, genotype and treatment are independent by design.

Molecule CC[C@H](C)C(=O)O[C@H]1C[C@H](O)C=C2C=C[C@H](C)[C@H](CC[C@@H](O)C[C@@H](O)CC(=O)O)[C@H]21 [Pravastatin, pravastatin] has an OR (rs264126 allele C DOM Imputed) of 0.7975, an OR (rs264129 allele T DOM Imputed) of 0.6113 and an OR (rs608278, allele A, ADD, Imputed) of 0.6427. The OR (rs613799, allele C, DOM, Imputed) was 1.426, the OR (rs644041, allele G, ADD, Imputed) was 1.523 and the OR (rs644041, allele G, DOM, Imputed) was 1.58. It also gave an OR (rs670593, allele A, REC, Imputed) of 0.6178, an OR (rs687047, allele C, ADD, Imputed) of 0.7104 and an OR (rs688358, allele A, ADD, Imputed) of 0.6857. For the same molecule, the OR (rs710832, allele A, REC, Genotyped) was 0.2657, the OR (rs712531, allele A, DOM, Imputed) was 1.787 and the OR (rs722927, allele G, ADD, Imputed) was 0.4322. It also gave an OR (rs722927, allele G, DOM, Imputed) of 0.433, an OR (rs726424, allele G, ADD, Genotyped) of 0.7473 and an OR (rs737542, allele A, REC, Imputed) of 3.431. For the same molecule, the OR (rs742827, allele A, ADD, Imputed) was 1.416, the OR (rs755117, allele A, DOM, Imputed) was 1.758 and the OR (rs757173, allele G, DOM, Genotyped) was 0.683. For the same molecule, the OR (rs2243860 allele A REC Imputed) was 2.063, the OR (rs2246564 allele T DOM Imputed) was 0.4711 and the OR (rs2248236 allele C DOM Imputed) was 0.6667. It also gave an OR (rs2250340 allele T DOM Imputed) of 0.4723, an OR (rs2257192 allele G DOM Imputed) of 0.4711 and an OR (rs2270584 allele A DOM Imputed) of 0.5988. The OR (rs2270586 allele A DOM Imputed) was 0.5858, the OR (rs2270589 allele A ADD Imputed) was 0.6907 and the OR (rs2270589 allele A DOM Imputed) was 0.4396. For the same molecule, the OR (rs2296889 allele C DOM Imputed) was 1.88, the OR (rs2301346 allele C ADD Imputed) was 1.627 and the OR (rs2301346 allele C DOM Imputed) was 2.008. The OR (rs2327929 allele G REC Imputed) was 1.756, the OR (rs2357486 allele C REC Imputed) was 1.682 and the OR (rs2373793 allele G DOM Imputed) was 1.775. For the same molecule, the OR (rs2377622 allele T REC Imputed) was 0.5046, the OR (rs2383903 allele G DOM Imputed) was 0.5866 and the OR (rs2389866 allele C DOM Imputed) was 0.6667. For the same molecule, the OR (rs2389869 allele C DOM Imputed) was 0.6667, the OR (rs2418541 allele A DOM Imputed) was 0.6113 and the OR (rs2418542 allele A DOM Imputed) was 0.6113. For the same molecule, the OR (rs2418548 allele C DOM Imputed) was 0.6382, the OR (rs2476976 allele C DOM Imputed) was 1.351 and the OR (rs2483639 allele A DOM Imputed) was 0.4711. The OR (rs2483640 allele A DOM Imputed) was 0.4711, the OR (rs2544780 allele T REC Imputed) was 1.683 and the OR (rs2586458 allele T DOM Imputed) was 0.4393. It also gave an OR (rs2593272 allele G ADD Imputed) of 0.5962, an OR (rs2593273 allele T ADD Imputed) of 0.5962 and an OR (rs2622499 allele G DOM Imputed) of 0.6667. It also gave an OR (rs2656822 allele T ADD Imputed) of 0.5962, an OR (rs2656823 allele G ADD Imputed) of 0.5962 and an OR (rs2656825 allele T ADD Imputed) of 0.558. The OR (rs2764766 allele C REC Imputed) was 1.776, the OR (rs2793101 allele T ADD Imputed) was 0.6263 and the OR (rs2793101 allele T DOM Imputed) was 0.5997. The OR (rs2795871 allele A ADD Imputed) was 0.3627, the OR (rs2795886 allele A ADD Imputed) was 0.3343 and the OR (rs2795886 allele A DOM Imputed) was 0.3343. It also gave an OR (rs2870464 allele G DOM Imputed) of 1.373, an OR (rs2875528 allele T DOM Imputed) of 2.42 and an OR (rs6040636, allele T, ADD, Imputed) of 1.429. It also gave an OR (rs6040638, allele C, ADD, Imputed) of 1.429, an OR (rs6040644, allele A, ADD, Imputed) of 1.429 and an OR (rs6040667, allele T, ADD, Imputed) of 1.419. The OR (rs6040668, allele C, ADD, Imputed) was 1.419, the OR (rs6053005, allele C, DOM, Imputed) was 0.3707 and the OR (rs6054405, allele A, REC, Imputed) was 1.796. The OR (rs6075186, allele G, DOM, Imputed) was 0.6821, the OR (rs6111540, allele A, ADD, Imputed) was 0.7778 and the OR (rs6131206, allele C, ADD, Imputed) was 1.462. The OR (rs6131208, allele T, ADD, Imputed) was 1.419, the OR (rs6131919, allele G, DOM, Imputed) was 0.6821 and the OR (rs6134243, allele C, ADD, Imputed) was 1.429. The OR (rs6136020, allele A, DOM, Imputed) was 0.6821, the OR (rs6464377, allele C, DOM, Imputed) was 1.743 and the OR (rs6474230, allele T, DOM, Imputed) was 1.832. For the same molecule, the OR (rs6476565, allele A, DOM, Imputed) was 0.4711, the OR (rs6511286, allele T, ADD, Imputed) was 1.657 and the OR (rs6541829, allele C, REC, Genotyped) was 3.048. For the same molecule, the OR (rs6544721, allele G, DOM, Imputed) was 1.782, the OR (rs6544728, allele T, DOM, Imputed) was 1.8 and the OR (rs6565910, allele G, DOM, Imputed) was 0.6325. For the same molecule, the OR (rs6581985, allele G, REC, Imputed) was 2.122, the OR (rs6685186, allele T, ADD, Imputed) was 1.364 and the OR (rs6722640, allele T, DOM, Imputed) was 0.5778. For the same molecule, the OR (rs6746170, allele A, DOM, Imputed) was 1.811, the OR (rs6805139, allele G, DOM, Imputed) was 1.64 and the OR (rs6808571, allele G, ADD, Imputed) was 1.439. It also gave an OR (rs6816479, allele A, REC, Imputed) of 2.214, an OR (rs6865976, allele C, DOM, Imputed) of 0.5474 and an OR (rs6871041, allele G, DOM, Imputed) of 0.6093. It also gave an OR (rs6908481, allele C, REC, Imputed) of 1.848, an OR (rs6917224, allele A, ADD, Imputed) of 1.351 and an OR (rs6920677, allele G, DOM, Imputed) of 0.5128. The OR (rs6994498, allele G, DOM, Imputed) was 1.832, the OR (rs6998772, allele T, DOM, Imputed) was 2.739 and the OR (rs7022281, allele C, ADD, Imputed) was 0.7264. For the same molecule, the OR (rs7022281, allele C, REC, Imputed) was 0.6555, the OR (rs7043983, allele T, DOM, Imputed) was 0.4711 and the OR (rs7077799, allele A, DOM, Imputed) was 1.355. The OR (rs7088947, allele A, ADD, Imputed) was 0.3545, the OR (rs7089661, allele C, DOM, Imputed) was 1.351 and the OR (rs7102072, allele A, DOM, Imputed) was 0.6088. It also gave an OR (rs7129817, allele T, ADD, Imputed) of 0.6903, an OR (rs7134262, allele T, REC, Imputed) of 1.737 and an OR (rs7138300, allele C, ADD, Imputed) of 0.7632. It also gave an OR (rs7138300, allele C, DOM, Imputed) of 0.5772, an OR (rs7295817, allele C, ADD, Imputed) of 0.7394 and an OR (rs7295817, allele C, REC, Imputed) of 0.747. For the same molecule, the OR (rs7297372, allele A, ADD, Imputed) was 0.7506, the OR (rs7298255, allele A, ADD, Imputed) was 0.7489 and the OR (rs7298255, allele A, DOM, Imputed) was 0.571. For the same molecule, the OR (rs7305832, allele C, REC, Imputed) was 1.737, the OR (rs7446891, allele G, DOM, Imputed) was 0.5964 and the OR (rs7448641, allele C, ADD, Imputed) was 0.235. It also gave an OR (rs7448641, allele C, DOM, Imputed) of 0.235, an OR (rs7460605, allele G, DOM, Imputed) of 1.533 and an OR (rs7468898, allele T, ADD, Imputed) of 1.539. For the same molecule, the OR (rs7501186, allele A, DOM, Imputed) was 1.277.
